Results reported in patent US8143222B2, “Modular platform for targeted therapeutic delivery” (Washington University, priority 2007, dated 2012).
At least one compound was matched to its structure with a doubt left.

Tested on: Akt
Assay: Western blot of phospho-Akt (Ser-473) in cell lysates
Format: cell-based, human
Conditions: Panc-1; one hour after treatment; wortmannin 1 μM, TAT-CTMP 10 μM
Experimental: In addition we looked at down stream effector GSK-3β using antibodies directed at GSK-3β and phospho GSK-3β.
Cells were subsequently harvested and % active caspase-3 was assessed by flow cytometry. Each experimental group represents an n=3. […] This experiment was repeated twice with multiple murine and human lines with similar results. (B and C) Antitumor effects of CTMP4 are the result of inhibition of Akt3 and its downstream effectors. […] Samples were treated for 1 hour prior to preparation of cell lysates. Immunoblots were subsequently prepared and stained with (B) anti-total AKT and phospho-AKT (Ser^473) and (C) anti-total GSK-3β and phospho GSK-3β.

SMILES: COC[C@H]1OC(=O)c2coc3c2[C@@]1(C)C1=C(C3=O)[C@@H]2CCC(=O)[C@@]2(C)C[C@H]1OC(C)=O [wortmannin]
- active phospho-AKT (Ser-473): decreased active phospho-AKT
